Reference: the supplement of paper PMC12067093, “Discovery and optimisation of a covalent ligand for TRIM25 and its application to targeted protein ubiquitination” (Chemical Science, 2025)
The other results are listed elsewhere or left out.

Protein sequences, listed by entry. Tags and fused reporters are not part of them. Lines headed by an entry give the natural chain unless they say otherwise; changes in a name come on top.
UniProt Q9NXH9: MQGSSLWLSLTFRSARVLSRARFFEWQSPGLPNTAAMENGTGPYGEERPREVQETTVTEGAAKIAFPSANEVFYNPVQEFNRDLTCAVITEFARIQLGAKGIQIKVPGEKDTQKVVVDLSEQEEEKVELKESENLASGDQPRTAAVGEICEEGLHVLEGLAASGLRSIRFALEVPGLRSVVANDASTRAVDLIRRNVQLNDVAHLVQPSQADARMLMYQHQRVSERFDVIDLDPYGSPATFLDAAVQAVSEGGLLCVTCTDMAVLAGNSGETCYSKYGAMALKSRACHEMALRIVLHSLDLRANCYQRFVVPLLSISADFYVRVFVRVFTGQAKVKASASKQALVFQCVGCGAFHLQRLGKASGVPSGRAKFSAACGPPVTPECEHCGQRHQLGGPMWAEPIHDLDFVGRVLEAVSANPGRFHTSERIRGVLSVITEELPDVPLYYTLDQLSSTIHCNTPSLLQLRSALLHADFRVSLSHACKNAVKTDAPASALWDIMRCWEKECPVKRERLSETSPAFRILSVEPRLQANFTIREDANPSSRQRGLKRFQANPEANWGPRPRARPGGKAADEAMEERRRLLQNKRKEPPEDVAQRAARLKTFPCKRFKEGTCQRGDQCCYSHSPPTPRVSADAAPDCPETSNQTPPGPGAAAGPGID
UniProt Q9Y2L5: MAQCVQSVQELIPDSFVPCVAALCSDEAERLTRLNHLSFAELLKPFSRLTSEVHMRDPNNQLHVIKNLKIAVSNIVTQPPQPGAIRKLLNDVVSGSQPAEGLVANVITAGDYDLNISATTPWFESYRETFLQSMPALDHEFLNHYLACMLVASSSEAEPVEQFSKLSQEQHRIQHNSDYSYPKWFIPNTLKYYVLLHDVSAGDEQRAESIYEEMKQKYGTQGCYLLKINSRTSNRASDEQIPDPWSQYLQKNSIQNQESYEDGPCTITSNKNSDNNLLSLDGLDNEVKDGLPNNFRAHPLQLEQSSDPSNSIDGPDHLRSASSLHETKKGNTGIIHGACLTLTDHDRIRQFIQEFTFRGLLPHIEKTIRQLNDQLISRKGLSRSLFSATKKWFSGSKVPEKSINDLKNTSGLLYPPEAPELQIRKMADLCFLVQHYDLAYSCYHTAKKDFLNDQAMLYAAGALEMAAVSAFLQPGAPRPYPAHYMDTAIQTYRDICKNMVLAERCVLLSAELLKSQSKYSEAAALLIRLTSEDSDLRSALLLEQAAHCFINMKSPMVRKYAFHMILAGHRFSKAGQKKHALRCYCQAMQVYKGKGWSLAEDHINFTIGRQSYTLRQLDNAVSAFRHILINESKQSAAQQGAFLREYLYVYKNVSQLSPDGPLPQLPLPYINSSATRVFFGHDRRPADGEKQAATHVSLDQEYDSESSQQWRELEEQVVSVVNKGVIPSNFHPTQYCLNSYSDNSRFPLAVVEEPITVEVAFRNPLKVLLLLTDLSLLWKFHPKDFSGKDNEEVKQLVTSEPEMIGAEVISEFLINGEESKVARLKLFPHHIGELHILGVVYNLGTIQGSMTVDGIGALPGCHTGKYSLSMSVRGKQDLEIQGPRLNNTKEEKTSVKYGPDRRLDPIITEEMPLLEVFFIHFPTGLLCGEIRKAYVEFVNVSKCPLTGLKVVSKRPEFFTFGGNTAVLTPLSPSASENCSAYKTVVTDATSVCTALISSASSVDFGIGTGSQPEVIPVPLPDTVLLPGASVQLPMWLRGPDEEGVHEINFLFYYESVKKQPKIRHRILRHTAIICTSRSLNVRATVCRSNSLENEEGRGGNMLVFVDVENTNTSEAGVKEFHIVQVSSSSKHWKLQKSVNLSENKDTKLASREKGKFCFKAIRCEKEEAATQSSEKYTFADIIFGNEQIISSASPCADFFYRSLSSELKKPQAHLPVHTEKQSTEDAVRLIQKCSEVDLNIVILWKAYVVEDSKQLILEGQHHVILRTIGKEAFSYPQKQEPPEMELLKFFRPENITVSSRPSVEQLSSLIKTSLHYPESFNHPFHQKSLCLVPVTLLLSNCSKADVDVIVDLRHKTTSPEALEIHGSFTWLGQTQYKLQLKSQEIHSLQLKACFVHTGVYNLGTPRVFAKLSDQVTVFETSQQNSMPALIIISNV
UniProt O15164: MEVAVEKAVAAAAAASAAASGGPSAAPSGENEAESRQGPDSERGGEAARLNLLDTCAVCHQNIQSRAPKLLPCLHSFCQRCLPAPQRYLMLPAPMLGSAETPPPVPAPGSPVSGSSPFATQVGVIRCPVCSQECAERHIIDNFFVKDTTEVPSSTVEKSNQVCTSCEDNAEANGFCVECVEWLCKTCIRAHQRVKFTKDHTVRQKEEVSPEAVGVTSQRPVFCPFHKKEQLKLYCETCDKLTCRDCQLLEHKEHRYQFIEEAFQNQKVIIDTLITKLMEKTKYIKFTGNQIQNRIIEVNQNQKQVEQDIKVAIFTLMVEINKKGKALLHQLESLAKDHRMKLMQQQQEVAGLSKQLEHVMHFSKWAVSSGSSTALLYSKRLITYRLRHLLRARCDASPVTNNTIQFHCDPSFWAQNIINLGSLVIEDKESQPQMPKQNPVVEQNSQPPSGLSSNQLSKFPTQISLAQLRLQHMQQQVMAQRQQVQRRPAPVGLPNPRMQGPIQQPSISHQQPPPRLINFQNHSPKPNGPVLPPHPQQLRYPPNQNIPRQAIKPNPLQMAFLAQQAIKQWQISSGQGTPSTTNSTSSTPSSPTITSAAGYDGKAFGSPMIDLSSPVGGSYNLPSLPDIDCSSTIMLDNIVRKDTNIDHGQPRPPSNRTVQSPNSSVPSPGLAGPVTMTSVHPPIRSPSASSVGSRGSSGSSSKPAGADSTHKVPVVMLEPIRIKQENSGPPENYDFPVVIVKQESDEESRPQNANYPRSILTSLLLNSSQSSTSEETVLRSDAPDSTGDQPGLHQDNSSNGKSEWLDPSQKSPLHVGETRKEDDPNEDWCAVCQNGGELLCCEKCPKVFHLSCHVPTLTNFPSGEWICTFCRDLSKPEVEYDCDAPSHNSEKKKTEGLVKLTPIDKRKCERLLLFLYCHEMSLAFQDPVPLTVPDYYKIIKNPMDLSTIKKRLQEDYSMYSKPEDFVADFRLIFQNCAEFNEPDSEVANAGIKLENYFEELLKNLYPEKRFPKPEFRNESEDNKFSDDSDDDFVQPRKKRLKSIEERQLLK
UniProt Q96Q05, whole entry, looked up: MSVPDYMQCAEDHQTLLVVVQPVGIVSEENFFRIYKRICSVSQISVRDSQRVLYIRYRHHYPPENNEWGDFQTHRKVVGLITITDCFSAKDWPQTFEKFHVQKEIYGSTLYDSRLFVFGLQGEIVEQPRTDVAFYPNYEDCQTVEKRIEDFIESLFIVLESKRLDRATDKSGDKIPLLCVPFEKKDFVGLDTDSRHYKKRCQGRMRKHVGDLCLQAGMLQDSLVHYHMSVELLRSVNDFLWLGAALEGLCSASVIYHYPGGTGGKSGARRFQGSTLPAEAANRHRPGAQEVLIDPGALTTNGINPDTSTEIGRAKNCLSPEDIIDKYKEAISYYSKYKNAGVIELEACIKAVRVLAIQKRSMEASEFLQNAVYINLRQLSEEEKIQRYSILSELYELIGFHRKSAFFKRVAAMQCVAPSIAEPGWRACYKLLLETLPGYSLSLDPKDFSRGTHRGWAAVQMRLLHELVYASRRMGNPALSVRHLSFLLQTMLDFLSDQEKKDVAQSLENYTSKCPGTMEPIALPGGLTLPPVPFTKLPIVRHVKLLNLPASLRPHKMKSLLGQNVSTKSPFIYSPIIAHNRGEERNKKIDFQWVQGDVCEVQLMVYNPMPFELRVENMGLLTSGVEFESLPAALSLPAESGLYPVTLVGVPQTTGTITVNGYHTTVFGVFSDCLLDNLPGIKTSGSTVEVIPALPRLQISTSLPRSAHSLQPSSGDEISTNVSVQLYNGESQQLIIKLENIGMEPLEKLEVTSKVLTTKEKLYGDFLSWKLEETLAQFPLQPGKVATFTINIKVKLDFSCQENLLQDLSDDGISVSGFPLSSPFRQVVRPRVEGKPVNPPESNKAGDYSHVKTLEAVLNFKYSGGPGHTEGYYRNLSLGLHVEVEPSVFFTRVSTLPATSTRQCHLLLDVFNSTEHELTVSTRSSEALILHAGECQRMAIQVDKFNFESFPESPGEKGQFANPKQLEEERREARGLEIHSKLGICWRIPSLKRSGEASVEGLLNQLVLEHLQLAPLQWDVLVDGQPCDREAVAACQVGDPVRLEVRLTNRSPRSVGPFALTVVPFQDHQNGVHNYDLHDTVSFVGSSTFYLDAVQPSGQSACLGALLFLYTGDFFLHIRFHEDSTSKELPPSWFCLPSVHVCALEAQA
UniProt Q9Y296, whole entry: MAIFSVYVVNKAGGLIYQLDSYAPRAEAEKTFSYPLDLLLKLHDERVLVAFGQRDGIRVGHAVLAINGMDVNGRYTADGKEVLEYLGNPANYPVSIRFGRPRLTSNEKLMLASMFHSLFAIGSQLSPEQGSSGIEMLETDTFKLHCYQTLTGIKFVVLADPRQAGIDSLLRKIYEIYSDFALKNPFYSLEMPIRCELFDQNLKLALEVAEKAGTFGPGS
UniProt Q9UPN9: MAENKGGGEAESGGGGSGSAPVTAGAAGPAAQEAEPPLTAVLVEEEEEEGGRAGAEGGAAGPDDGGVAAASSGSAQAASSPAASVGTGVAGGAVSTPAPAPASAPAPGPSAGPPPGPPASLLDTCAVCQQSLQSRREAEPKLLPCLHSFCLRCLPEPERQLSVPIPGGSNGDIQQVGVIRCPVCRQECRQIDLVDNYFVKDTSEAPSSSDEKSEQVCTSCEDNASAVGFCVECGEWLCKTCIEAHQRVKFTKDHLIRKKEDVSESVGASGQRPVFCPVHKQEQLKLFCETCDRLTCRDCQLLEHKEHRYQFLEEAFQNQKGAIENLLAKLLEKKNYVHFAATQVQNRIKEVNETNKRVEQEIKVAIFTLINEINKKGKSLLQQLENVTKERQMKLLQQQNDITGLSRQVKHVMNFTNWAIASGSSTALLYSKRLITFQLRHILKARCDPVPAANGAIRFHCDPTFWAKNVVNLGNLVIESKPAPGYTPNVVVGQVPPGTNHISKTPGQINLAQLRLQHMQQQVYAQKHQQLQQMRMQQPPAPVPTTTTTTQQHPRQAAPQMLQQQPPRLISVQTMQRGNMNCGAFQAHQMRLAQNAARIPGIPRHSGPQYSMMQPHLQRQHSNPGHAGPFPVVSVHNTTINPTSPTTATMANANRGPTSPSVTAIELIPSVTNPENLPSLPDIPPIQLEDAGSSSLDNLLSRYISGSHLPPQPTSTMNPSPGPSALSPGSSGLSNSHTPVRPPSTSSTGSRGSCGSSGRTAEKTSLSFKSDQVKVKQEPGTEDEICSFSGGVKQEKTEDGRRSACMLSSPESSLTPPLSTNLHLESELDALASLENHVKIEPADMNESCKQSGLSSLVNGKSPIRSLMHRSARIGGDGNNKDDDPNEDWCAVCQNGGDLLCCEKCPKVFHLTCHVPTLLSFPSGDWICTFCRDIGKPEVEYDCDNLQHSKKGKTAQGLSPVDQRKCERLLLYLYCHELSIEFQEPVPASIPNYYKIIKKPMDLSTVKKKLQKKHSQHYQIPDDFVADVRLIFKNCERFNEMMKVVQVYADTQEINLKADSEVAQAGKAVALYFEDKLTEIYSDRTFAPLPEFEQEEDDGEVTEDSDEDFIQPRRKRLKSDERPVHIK
UniProt Q15654: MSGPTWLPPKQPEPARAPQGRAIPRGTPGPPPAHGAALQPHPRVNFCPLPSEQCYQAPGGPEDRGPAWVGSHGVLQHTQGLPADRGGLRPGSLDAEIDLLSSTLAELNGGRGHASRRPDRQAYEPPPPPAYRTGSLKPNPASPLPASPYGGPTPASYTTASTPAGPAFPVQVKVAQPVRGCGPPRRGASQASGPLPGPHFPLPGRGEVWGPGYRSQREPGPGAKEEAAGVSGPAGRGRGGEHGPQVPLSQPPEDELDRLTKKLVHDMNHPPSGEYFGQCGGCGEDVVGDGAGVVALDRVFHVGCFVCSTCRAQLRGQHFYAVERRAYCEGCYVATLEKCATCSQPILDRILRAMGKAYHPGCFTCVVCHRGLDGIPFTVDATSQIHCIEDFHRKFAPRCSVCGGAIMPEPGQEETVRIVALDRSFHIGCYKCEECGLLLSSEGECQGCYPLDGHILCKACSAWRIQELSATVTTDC
UniProt Q9UL33, whole entry, looked up: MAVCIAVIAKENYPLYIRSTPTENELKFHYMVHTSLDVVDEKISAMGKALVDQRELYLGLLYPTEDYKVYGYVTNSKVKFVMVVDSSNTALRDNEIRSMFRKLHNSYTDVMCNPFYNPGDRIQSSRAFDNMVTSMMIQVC

Compound: CC1Cc2ccccc2N1C(=O)C1CCCN(C1)C(=O)CCl (mixture of isomers) [TRIM25 ligand 11 (diastereomer mixture)]
Experiment: probe-labelled cysteine peptide fold change vs DMSO (competition) (log2 fold change); higher = less target engagement (more negative = stronger competition)
Conditions: THP-1, incubation time: 4 h
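Further: competitive chemoproteomic profiling in live THP-1 cells with an iodoacetamide desthiobiotin (IA-DTB) probe, comparing probe-labelled peptide intensities in compound-treated cells against DMSO-treated controls.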

Target | probe-labelled cysteine peptide fold change (10 µM) | probe-labelled cysteine peptide fold change (50 µM)
TRMT1L_Q7Z2T5_239_EADTDVQVCPNYSIPQK (UniProt Q7Z2T5) | 0.00462 | -0.216
TRMT1_Q9NXH9_351_QALVFQCVGCGAFHLQR (UniProt Q9NXH9) | 0.147 | 0.318
TRAPPC8_Q9Y2L5_1074_HTAIICTSR (UniProt Q9Y2L5) | 0.0667 | 0.334
TRIM21_P19474_54_GGGSVCPVCR (UniProt P19474) | -0.0581 | 0.0928
TRIM24_O15164_223_QKEEVSPEAVGVTSQRPVFCPFHK (UniProt O15164) | -0.0299 | -0.169
TRAPPC9_Q96Q05_179_IPLLCVPFEK (UniProt Q96Q05) | 0.174 | 0.119
TRAPPC8_Q9Y2L5_1330+1341_SLCLVPVTLLLSNCSK (UniProt Q9Y2L5) | -0.297 | -0.276
TRAPPC4_Q9Y296_195_CELFDQNLK (UniProt Q9Y296) | 0.157 | 0.214
TRIM33_Q9UPN9_276_KKEDVSESVGASGQRPVFCPVHK (UniProt Q9UPN9) | -0.0929 | -0.0137
TPX2_Q9ULW0_301_GCTIVK (UniProt Q9ULW0) | 0.0992 | 0.152
TRIP6_Q15654_362+365+368_AYHPGCFTCVVCHR (UniProt Q15654) |  | 0.0784
TPRKB_Q9Y3C4_167_LSSQEESIGTLLDAIICR (UniProt Q9Y3C4) | -0.0232 | 0.141
TRAPPC2L_Q9UL33_4_AVCIAVIAK (UniProt Q9UL33) | -0.164 | -0.222
TRAP1_Q12931_573_SPAAECLSEKETEELMAWMR (UniProt Q12931) | -0.429 | -0.376

An excerpt of these results, with tabs.
Target	probe-labelled cysteine peptide fold change (10 µM)	probe-labelled cysteine peptide fold change (50 µM)
TRMT1_Q9NXH9_351_QALVFQCVGCGAFHLQR (UniProt Q9NXH9)	0.147	0.318
TRAPPC8_Q9Y2L5_1074_HTAIICTSR (UniProt Q9Y2L5)	0.0667	0.334
